# The supplement of paper PMC9135407
# Where “and” joins values, the source holds several entries; their conditions need not be identical. Equal values may be shown once. Where a name gives a salt, the structure may show the parent alone. ± gives the standard deviation of the averaged measurements. The list shows a part of the results. Part of the spread comes from offsets between plates or batches.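 Primary human stellate myofibroblasts activated in culture; inactivation shown by regained lipid droplets. Readout: fraction of Hoechst-counted cells exceeding a per-plate Bodipy threshold, duplicate wells, each plate with DMSO negative and nortriptyline positive controls. Hits: control-normalized score beyond the plate's top-tenth-percentile nortriptyline wells, or among its three best wells. Final well concentrations unstated.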
# Tested on: primary human hepatic stellate cells (donor 1)
# Assay: percent Bodipy-positive cells; higher = more lipid droplet accumulation
# Settings: 48 h
# [1] = library stock concentration: 10 mM
# [2] = library stock concentration: 3.33 mM
# [3] = library stock concentration: 1 mM
# [4] = library stock concentration: 80 uM
# [5] = library stock concentration: 400 uM
# [6] = library stock concentration: 2 mM
structure (smiles),measurement,setting,value
CC(=O)OCCNC(=O)c1cccnc1 [N-[2-(Acetoxy)ethyl]-3-pyridinecarboxamide],percent Bodipy-positive cells,[1],11.3 ± 3.1%
CN(C)CC=CC(=O)Nc1cc2c(Nc3ccc(F)c(Cl)c3)ncnc2cc1O[C@H]1CCOC1 [Afatinib (BIBW2992)],percent Bodipy-positive cells,[2],88 ± 3%
CN1CCc2cccc3c2[C@H]1Cc1ccc(O)c(O)c1-3 [(R)-(-)-Apomorphine hydrochloride],percent Bodipy-positive cells,[1],6.46 ± 2.2%
CN1CCc2cccc3c2[C@H]1Cc1ccc(O)c(O)c1-3 [R(-) Apomorphine hydrochloride hemihydrate],percent Bodipy-positive cells,,42.2 ± 12%
CN1CCc2cccc3c2[C@H]1Cc1ccc(O)c(O)c1-3 [Apomorphine r (-)],percent Bodipy-positive cells,library stock concentration: 7.5 mM,8.992 ± 0.044%
CN1CCc2cccc3c2[C@H]1Cc1ccc(O)c(O)c1-3 [Apomorphine hydrochloride],percent Bodipy-positive cells,library stock concentration: 6.6 mM,1.65 ± 0.52%
same,percent Bodipy-positive cells,[1],16.3 ± 4.5%
CN1CCc2cccc3c2[C@H]1Cc1ccc(O)c(O)c1-3 [Apomorphine hydrochloride hemihydrate],percent Bodipy-positive cells,[1],30.9 ± 5.4%
CCOC(=O)C(C)(C)Oc1ccc(Cl)cc1 [Clofibrate],percent Bodipy-positive cells,[3],21.9 ± 3.4%
same,percent Bodipy-positive cells,[1],36.4 ± 0.72%
O=c1cc(N2CCOCC2)oc2c1ccc1ccccc12,percent Bodipy-positive cells,[4],8.22 ± 3%
same,percent Bodipy-positive cells,[5],9.92 ± 4.1%
same,percent Bodipy-positive cells,[6],17.9 ± 16%
same,percent Bodipy-positive cells,[1],7.58% and 5.39%
O=c1cc(N2CCOCC2)oc2c1ccc1ccccc12 [DNA-PK Inhibitor II],percent Bodipy-positive cells,[2],8.34 ± 2.4%
"c1cnc2c(c1)ccc1cccnc12 [1,10-Phenanthroline monohydrate]",percent Bodipy-positive cells,[1],41.3 ± 1.6%
CC(C)NC[C@H](O)COc1ccc(CC(N)=O)cc1 [S(-)-Atenolol],percent Bodipy-positive cells,[1],42.9 ± 7.6%
CC(C)NC[C@H](O)COc1ccc(CC(N)=O)cc1 [S-(-)-Atenolol],percent Bodipy-positive cells,[1],5.55 ± 0.65%
CC(C)NC[C@H](O)COc1ccc(CC(N)=O)cc1 [(S)-(-)-Atenolol],percent Bodipy-positive cells,,34.5 ± 2.6%
CC(C)OC(=O)CCC/C=C/C[C@@H]1[C@@H](/C=C/[C@H](O)CCc2ccccc2)[C@H](O)C[C@@H]1O,percent Bodipy-positive cells,[3],20.9 ± 5.7%
CO[C@@]1(NC(=O)CSCC#N)C(=O)N2C(C(=O)O)=C(CSc3nnnn3C)CS[C@@H]21 [Cefmetazole sodium],percent Bodipy-positive cells,[1],34.4% and 25.6%
CO[C@@]1(NC(=O)CSCC#N)C(=O)N2C(C(=O)O)=C(CSc3nnnn3C)CS[C@@H]21 [Cefmetazole sodium salt],percent Bodipy-positive cells,,7.95 ± 1.7%
C[C@@H]1[C@H](O)[C@@H](C)/C=C/C=C/C=C/C=C/C=C/C=C/C=C/[C@H](O[C@@H]2O[C@H](C)[C@@H](O)[C@H](N)[C@@H]2O)C[C@@H]2O[C@](O)(C[C@@H](O)C[C@@H](O)[C@H](O)CC[C@@H](O)C[C@@H](O)CC(=O)O[C@H]1C)C[C@H](O)[C@H]2C(=O)O [Amphotericin b],percent Bodipy-positive cells,[1],11.7 ± 1.8%
C[C@@H]1[C@H](O)[C@@H](C)/C=C/C=C/C=C/C=C/C=C/C=C/C=C/[C@H](O[C@@H]2O[C@H](C)[C@@H](O)[C@H](N)[C@@H]2O)C[C@@H]2O[C@](O)(C[C@@H](O)C[C@@H](O)[C@H](O)CC[C@@H](O)C[C@@H](O)CC(=O)O[C@H]1C)C[C@H](O)[C@H]2C(=O)O [Amphotericin B],percent Bodipy-positive cells,,21.2 ± 7.8%
same,percent Bodipy-positive cells,[2],5.39 ± 3.3%
same,percent Bodipy-positive cells,[1],10.3 ± 0.14%
CN(C)CC(C)(C)CNc1nn2c(-c3ccccc3)nnc2cc1C1CCC1,percent Bodipy-positive cells,[5],23.7 ± 5.9%
same,percent Bodipy-positive cells,[6],27.1 ± 5.5%
same,percent Bodipy-positive cells,[1],45.5 ± 4.3%
COc1ccc2[nH]c(I)c(CCNC(C)=O)c2c1 [2-Iodomelatonin],percent Bodipy-positive cells,[1],6.62 ± 0.6%
CC(C)c1ccc2c(c1)c(SC(C)(C)C)c(CC(C)(C)C(=O)O)n2Cc1ccc(Cl)cc1 [MK 886 (sodium salt)],percent Bodipy-positive cells,[3],11.3 ± 1.9%
CC(C)c1ccc2c(c1)c(SC(C)(C)C)c(CC(C)(C)C(=O)O)n2Cc1ccc(Cl)cc1,percent Bodipy-positive cells,[1],20.7% and 44.1%
"CC(C)CCOc1ccc(N)cc1 [CP 24,879 (hydrochloride)]",percent Bodipy-positive cells,[3],33 ± 20%
Cc1cc(Nc2nc(N[C@@H](C)c3ccc(F)cc3)c(C#N)cc2F)n[nH]1,percent Bodipy-positive cells,[5],14.4 ± 0.82%
same,percent Bodipy-positive cells,[6],23.2 ± 13%
same,percent Bodipy-positive cells,[2],22.5 ± 5.1%
same,percent Bodipy-positive cells,[1],78.7% and 68.2%
CC(/C=C/C(=O)NO)=C\[C@@H](C)C(=O)c1ccc(N(C)C)cc1 [Trichostatin-A],percent Bodipy-positive cells,library stock concentration: 16.5 mM,67 ± 4.8%
COc1cc(N2CCC(N3CCN(C)CC3)CC2)ccc1Nc1ncnc(Nc2ccccc2S(=O)(=O)C(C)C)n1,percent Bodipy-positive cells,[4],8.77 ± 3.6%
same,percent Bodipy-positive cells,[5],10.1 ± 1.2%
same,percent Bodipy-positive cells,[6],31 ± 1.8%
same,percent Bodipy-positive cells,[1],59.5 ± 10%
CCN(CCO)CCCC(C)Nc1ccnc2cc(Cl)ccc12 (stereo unspecified) [Hydroxychloroquine sulfate],percent Bodipy-positive cells,[1],46.6 ± 2.5%
Cc1nc(Nc2ncc(C(=O)Nc3c(C)cccc3Cl)s2)cc(N2CCN(CCO)CC2)n1,percent Bodipy-positive cells,[5],66.7 ± 18%
same,percent Bodipy-positive cells,[1],87.4 ± 1.1%
Cc1nc(Nc2ncc(C(=O)Nc3c(C)cccc3Cl)s2)cc(N2CCN(CCO)CC2)n1 [Dasatinib],percent Bodipy-positive cells,[4],12.8 ± 4.6%
same,percent Bodipy-positive cells,[5],29.6 ± 2.3%
same,percent Bodipy-positive cells,[6],63.5 ± 10%
same,percent Bodipy-positive cells,[2],56.6 ± 12%
same,percent Bodipy-positive cells,[1],91% and 80.9%
CCN1CCN(Cc2ccc(-c3cc4c(N[C@H](C)c5ccccc5)ncnc4[nH]3)cc2)CC1,percent Bodipy-positive cells,[2],70.7 ± 3.3%
same,percent Bodipy-positive cells,[1],91.9 ± 3.4%
CCOC(=O)c1c(CSc2ccccc2)n(C)c2cc(Br)c(O)c(CN(C)C)c12 [Arbidol HCl],percent Bodipy-positive cells,[2],24.6 ± 9.3%
same,percent Bodipy-positive cells,[1],71.8 ± 12%
CN(C)c1ccc(C(=C2C=CC(=[N+](C)C)C=C2)c2ccc(N(C)C)cc2)cc1 [Crystal Violet],percent Bodipy-positive cells,[2],19.5 ± 4.1%
same,percent Bodipy-positive cells,[1],88.7 ± 2.9%
CN(C)c1ccc(C(=C2C=CC(=[N+](C)C)C=C2)c2ccc(N(C)C)cc2)cc1 [Gentian violet],percent Bodipy-positive cells,library stock concentration: 4.9 mM,84 ± 3.9%
same,percent Bodipy-positive cells,[1],19.7 ± 11%
COc1ccc(CC2c3cc(OC)c(OC)cc3CC[N+]2(C)CCC(=O)OCCCCCOC(=O)CC[N+]2(C)CCc3cc(OC)c(OC)cc3C2Cc2ccc(OC)c(OC)c2)cc1OC (stereo unspecified) [Atracurium besylate],percent Bodipy-positive cells,,36.6 ± 13%
COc1ccc(CC2c3cc(OC)c(OC)cc3CC[N+]2(C)CCC(=O)OCCCCCOC(=O)CC[N+]2(C)CCc3cc(OC)c(OC)cc3C2Cc2ccc(OC)c(OC)c2)cc1OC (stereo unspecified),percent Bodipy-positive cells,[1],14.3 ± 1.6%
COc1ccc(CC2c3cc(OC)c(OC)cc3CC[N+]2(C)CCC(=O)OCCCCCOC(=O)CC[N+]2(C)CCc3cc(OC)c(OC)cc3C2Cc2ccc(OC)c(OC)c2)cc1OC (stereo unspecified) [Atracurium Besylate],percent Bodipy-positive cells,[2],9.65 ± 7.6%
same,percent Bodipy-positive cells,[1],32.5 ± 3.6%
CC(=O)[C@H]1CC[C@H]2[C@@H]3CC=C4C[C@@H](O)CC[C@]4(C)[C@H]3CC[C@]12C [Pregnenolone],percent Bodipy-positive cells,,21.93 ± 0.061%
same,percent Bodipy-positive cells,[2],8.52 ± 0.8%
same,percent Bodipy-positive cells,library stock concentration: 6.3 mM,10.4 ± 3.4%
same,percent Bodipy-positive cells,[1],14.2% and 35%
CN[C@H]1CC[C@@H](c2ccc(Cl)c(Cl)c2)c2ccccc21 [Sertraline],percent Bodipy-positive cells,,89.9 ± 4.5%
Oc1cc2c(cc1O)[C@@H]1c3ccc(O)c(O)c3OC[C@]1(O)C2 [Hematoxylin],percent Bodipy-positive cells,[2],4.63 ± 0.3%
same,percent Bodipy-positive cells,[1],10.6 ± 1.8%
CC(C(=O)O)c1ccc2c(c1)CC(=O)c1ccccc1S2 (stereo unspecified) [Zaltoprofen],percent Bodipy-positive cells,[2],11 ± 8.1%
same,percent Bodipy-positive cells,[1],11.2 ± 0.24%
C[C@@H]1CCNC(=O)c2cc3ccc(C(=O)Nc4nc5ccccc5n4CCCN(C)C)cc3n21,percent Bodipy-positive cells,[4],11.3 ± 2.1%
same,percent Bodipy-positive cells,[5],9.6 ± 1.8%
same,percent Bodipy-positive cells,[6],11.5 ± 2.2%
same,percent Bodipy-positive cells,[1],33.2 ± 7%
Cc1nc(-c2ccc(OCC(C)C)c(C#N)c2)sc1C(=O)O [Febuxostat],percent Bodipy-positive cells,[4],7.12 ± 2.5%
same,percent Bodipy-positive cells,[5],16.1 ± 14%
same,percent Bodipy-positive cells,[6],9.89 ± 1.8%
same,percent Bodipy-positive cells,[2],5.85 ± 1.8%
same,percent Bodipy-positive cells,[1],13.6% and 3.71%
Cc1nc(-c2ccc(OCC(C)C)c(C#N)c2)sc1C(=O)O,percent Bodipy-positive cells,[1],29.8 ± 4.9%
CC(C)(C)c1ccc(C(O)CCCN2CCC(C(O)(c3ccccc3)c3ccccc3)CC2)cc1 (stereo unspecified) [Terfenadine],percent Bodipy-positive cells,,54 ± 10%
same,percent Bodipy-positive cells,[1],94.38 ± 0.88%
CC(COc1ccccc1)NC(C)C(O)c1ccc(O)cc1 (stereo unspecified) [Isoxsuprine hydrochloride],percent Bodipy-positive cells,,43.1 ± 2.3%
same,percent Bodipy-positive cells,library stock concentration: 5.9 mM,17.8 ± 5.5%
same,percent Bodipy-positive cells,[1],43 ± 5.2%
CC(COc1ccccc1)NC(C)C(O)c1ccc(O)cc1 (stereo unspecified) [Duvadilan],percent Bodipy-positive cells,[1],66.1 ± 3.1%
C[C@H]1O[C@@H](Oc2c(-c3cc(O)c(O)c(O)c3)oc3cc(O)cc(O)c3c2=O)[C@@H](O)[C@@H](O)[C@@H]1O [Myricitrin],percent Bodipy-positive cells,[2],8.09 ± 3.8%
same,percent Bodipy-positive cells,[1],9.58 ± 1.2%
CC[C@@H](C(=O)[C@@H](C)[C@@H](O)[C@H](C)CCc1ccc(C)c(O)c1C(=O)O)[C@H]1O[C@](CC)([C@H]2CC[C@](O)(CC)[C@H](C)O2)C[C@@H]1C [Lasalocid sodium],percent Bodipy-positive cells,[1],76.7 ± 0.81%
CC[C@@H](C(=O)[C@@H](C)[C@@H](O)[C@H](C)CCc1ccc(C)c(O)c1C(=O)O)[C@H]1O[C@](CC)([C@H]2CC[C@](O)(CC)[C@H](C)O2)C[C@@H]1C [Lasalocid sodium salt],percent Bodipy-positive cells,,46.8 ± 11%
C=C1/C(=C\C=C2/CCC[C@]3(C)[C@@H]([C@H](C)/C=C/[C@H](C)C(C)C)CC[C@@H]23)C[C@@H](O)C[C@@H]1O [Doxercalciferol],percent Bodipy-positive cells,[2],8.13 ± 2.1%
same,percent Bodipy-positive cells,[1],24.4 ± 2.5%
Cc1ccc2c(=O)c3cccc(CC(=O)O)c3oc2c1C [DMXAA (Vadimezan)],percent Bodipy-positive cells,[2],6.78 ± 0.83%
same,percent Bodipy-positive cells,[1],11.7 ± 3.4%
O=C(O)CCC/C=C\C[C@@H]1[C@@H](/C=C/[C@@H](O)COc2cccc(Cl)c2)[C@H](O)C[C@@H]1O [(+)-Cloprostenol],percent Bodipy-positive cells,[3],16.7 ± 1.1%
CCCCCCCCCCCCCCCCCCCCCCCCCCCCCCO [n-Triacontanol],percent Bodipy-positive cells,[3],16 ± 5.6%
CCOC(=O)c1[nH]c2cc(Cl)ccc2c1C(C(=O)NC(C)(C)C)N(C=O)Cc1ccc(Cl)cc1 (stereo unspecified),percent Bodipy-positive cells,[2],29.2 ± 2.5%
same,percent Bodipy-positive cells,[1],67.8 ± 0.83%
CCOC(=O)c1ccc(N=Nc2ccc(O)c(CC(=O)O)c2)cc1,percent Bodipy-positive cells,[3],8.53 ± 1.5%
CCCCN1CCCCC1C(=O)Nc1c(C)cccc1C (stereo unspecified) [Bupivacaine hydrochloride],percent Bodipy-positive cells,,26.8 ± 7.7%
same,percent Bodipy-positive cells,library stock concentration: 6.2 mM,12.4 ± 7.2%
same,percent Bodipy-positive cells,[1],42.5 ± 7.6%
CCCCN1CCCCC1C(=O)Nc1c(C)cccc1C (stereo unspecified) [Bupivacaine HCl],percent Bodipy-positive cells,[2],16.5 ± 4.3%
same,percent Bodipy-positive cells,library stock concentration: 6.9 mM,8.85 ± 6.2%
same,percent Bodipy-positive cells,[1],21.7 ± 5.5%
CO/N=C1\C[C@]2(C[C@@H]3C[C@@H](C/C=C(\C)C[C@@H](C)/C=C/C=C4\CO[C@@H]5[C@H](O)C(C)=C[C@@H](C(=O)O3)[C@]45O)O2)O[C@H](/C(C)=C/C(C)C)[C@H]1C,percent Bodipy-positive cells,[1],40.29 ± 0.066%
CCOC(=O)NNc1nncc2ccccc12 [Todralazine hydrochloride],percent Bodipy-positive cells,,40.4 ± 5%
same,percent Bodipy-positive cells,[1],29.5 ± 1.3%
CCN(CC)CCNC(=O)c1c(C)[nH]c(/C=C2\C(=O)Nc3ccc(F)cc32)c1C.O=C(O)C[C@H](O)C(=O)O [Sunitinib malate],percent Bodipy-positive cells,[6],90.8 ± 3.1%
C(/c1c2cccc1)(=C/CCN(C)C)\c3c(cccc3)C=C2.Cl [Cyclobenzaprine hydrochloride],percent Bodipy-positive cells,,77 ± 2.9%
